## Primary screen of a compound library

The chains behind the UniProt entries cited, without tags or fusion partners. Residues count along the entry.
UniProt P9WPC5, whole entry: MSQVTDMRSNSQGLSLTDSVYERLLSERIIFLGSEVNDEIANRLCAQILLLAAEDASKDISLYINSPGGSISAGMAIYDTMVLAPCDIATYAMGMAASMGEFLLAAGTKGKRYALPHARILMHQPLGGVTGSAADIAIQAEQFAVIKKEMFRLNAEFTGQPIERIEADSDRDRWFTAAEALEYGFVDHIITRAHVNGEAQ
UniProt P9WPC3, whole entry partner: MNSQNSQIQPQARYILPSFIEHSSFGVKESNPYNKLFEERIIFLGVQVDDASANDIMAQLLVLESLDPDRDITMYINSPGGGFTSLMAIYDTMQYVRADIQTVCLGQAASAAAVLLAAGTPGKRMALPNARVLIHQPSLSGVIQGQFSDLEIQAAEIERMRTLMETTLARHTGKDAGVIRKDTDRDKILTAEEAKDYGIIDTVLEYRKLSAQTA
UniProt Q4DA54, 1-478: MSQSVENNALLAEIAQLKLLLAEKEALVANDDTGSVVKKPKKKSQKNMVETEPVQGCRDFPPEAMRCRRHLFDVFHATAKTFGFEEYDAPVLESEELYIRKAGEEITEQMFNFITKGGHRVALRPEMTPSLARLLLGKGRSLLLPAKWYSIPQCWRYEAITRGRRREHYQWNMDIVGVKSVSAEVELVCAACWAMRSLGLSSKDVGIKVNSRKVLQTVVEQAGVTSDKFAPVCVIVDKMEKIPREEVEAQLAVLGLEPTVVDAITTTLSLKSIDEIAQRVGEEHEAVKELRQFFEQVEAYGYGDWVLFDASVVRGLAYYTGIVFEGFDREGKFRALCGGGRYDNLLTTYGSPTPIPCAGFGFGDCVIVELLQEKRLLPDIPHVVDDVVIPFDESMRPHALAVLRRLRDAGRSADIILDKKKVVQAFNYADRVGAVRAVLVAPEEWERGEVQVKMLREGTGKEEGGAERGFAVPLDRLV
UniProt P9WNZ1, whole entry: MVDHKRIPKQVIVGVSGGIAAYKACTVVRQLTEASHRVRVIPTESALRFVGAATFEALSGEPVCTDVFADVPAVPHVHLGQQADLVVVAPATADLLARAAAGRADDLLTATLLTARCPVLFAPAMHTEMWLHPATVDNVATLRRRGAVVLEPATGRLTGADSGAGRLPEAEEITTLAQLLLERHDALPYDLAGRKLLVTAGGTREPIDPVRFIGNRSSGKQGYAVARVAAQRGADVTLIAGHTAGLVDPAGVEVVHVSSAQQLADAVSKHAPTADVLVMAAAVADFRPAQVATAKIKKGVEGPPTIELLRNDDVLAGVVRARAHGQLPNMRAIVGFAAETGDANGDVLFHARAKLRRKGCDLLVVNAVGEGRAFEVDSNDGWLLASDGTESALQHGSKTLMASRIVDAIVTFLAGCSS

Data taken from ChEMBL document CHEMBL3988442, “University of Dundee, Small-Polar-MMV Screening Library” (2021).

Each number is a percent effect as filed.
How 0% and 100% were set is not recorded. Most values in the screen are low, and negative values occur.
This is an unselected part of the compounds tested.
Two or more numbers in one place are separate tests of the same structure; such repeats can differ widely.
A dash means the value is not listed here; it may have been measured.

A: 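ClpP1P2, Mycobacterium tuberculosis (UniProt P9WPC5 and UniProt P9WPC3). Protease assay of ClpP1P2, read by the AMC dye that it sets free. Compounds at 50 µM. Higher reads as stronger inhibition, judged from the few compounds that gave an IC50. Most other retested compounds had strongly negative values. Of about 69,000 compounds tested this way, about 10 (0.015%) reached 50% or more in at least one test.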
B: 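Assay of Toxoplasma gondii numbers, read through their beta-galactosidase reporter with a colour substrate. Concentration: 10 µM. Higher reads as fewer parasites (inferred from which compounds were picked for retests). Of about 67,000 compounds tested this way, about 260 (0.38%) reached 50% or more in at least one test.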
C: 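Cell assay of Leishmania donovani living inside macrophages; the read-out is not stated. Compounds at 30 µM. The record gives no direction; compounds that gave an IC50 in retests scored well above the rest, so higher reads as stronger inhibition. Of about 69,000 compounds tested this way, about 1,000 (1.5%) reached 50% or more in at least one test.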
D: 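Enzyme assay of histidyl-tRNA synthetase; the read-out is not stated. Target: Histidine-tRNA ligase, Trypanosoma cruzi CL Brener (UniProt Q4DA54). Compounds at 30 µM. Direction is inferred from retests: higher values go with stronger inhibition. About 69,000 compounds were tested under these conditions; 0.045% (about 31) showed 50% or more at least once.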
E: 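Enzyme assay of CoaBC with a phosphate dye (Biomol Green) read at 650 nm. Target: Coenzyme A biosynthesis protein CoaBC, Mycobacterium tuberculosis (UniProt P9WNZ1). Compounds at 30 µM. Higher reads as stronger inhibition, judged from the few compounds that gave an IC50. Most strong results did not repeat in a second test. Size under these conditions: about 67,000 compounds, about 40 of them at 50% or above in at least one test.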

Compound	A	B	C	D	E
Cn1ccnc1CN1CCC(F)(F)C2(CCN(c3cnccn3)C2)C1.O=C(O)C(F)(F)F (stereo not shown)	-	1.914	-10.04	-	-
CCN1CCCC(O)(CNCc2ccccc2F)C1 (stereo not shown)	-1.266	11.69	1.785	4.762	-17.92
Cc1ccc(CC(=O)NCCCNS(C)(=O)=O)cc1	13.89	3.093	3.88	6.391	4.439
CCS(=O)(=O)N1CCC(c2nc3ccc(-c4ccccc4)cn3n2)CC1	-9.153	15.77	12.5	-0.8264	10.54
CC(CS(C)(=O)=O)N(C)C(=O)NCCCc1ccc(Cl)cc1 (stereo not shown)	-8.089	6.116	14.3	1.327	-2.336
COc1ccc(N2CCC(C(=O)/N=c3/[nH]ccs3)CC2)nn1	-0.3216	-0.9564	-13.08	-3.825	1.48
COc1ccc(-n2cccn2)c(CN2CCC(O)(CO)CC2)c1	2.029	9.252	16.07	8.205	2.067
Cn1cc(C(=O)N2CC[C@@H]3[C@@H]2CCN3Cc2ccccc2)cn1	3.306	-	-	6.122	6.304
Cc1cnn(CC2CCCN2C(=O)c2ccc(OCC3CC3)nc2)c1 (stereo not shown)	-17.22	3.599	1.288	2.053	1.579
CC(C)CCN1CCNC(=O)C1CC(=O)N1CCc2sccc2C1 (stereo not shown)	-15.95	2.47	29.23	0.8368	-5
O=C(NCc1ccco1)N1CCCCC1c1nc(C2CC2)no1 (stereo not shown)	2.992	-	17	6.931	-0.3645
O=C(Cn1cccn1)NCC1CCN(Cc2cc3ccccc3[nH]2)C1 (stereo not shown)	-17.31	7.872	9.872 and 3.829	6.024	0.7634
COc1ccc(-c2c(C(C)C)nn3c(=N)c(C#N)n[nH]c23)cc1	2.145	-	16.37	-0.9901	0.8505
CCOCCNc1nc(C2CCCC2)nc2c1cnn2C	-0.4121	-0.9852	33.9	3.306	-7.463
CCCc1nc(NCCCn2ccnc2)c2c(n1)c(C)nn2CC	20.98	67.95	26.98	4.348	-1.155
CNc1nc2c(s1)C(=O)CN(C(=O)NCCc1ccccc1)C2	14.08	1.028	-9.508 and -3.472	9.04	1.807
O=C1CC[C@@H](CN(Cc2ccncc2)Cc2nc(CC3CC3)no2)N1	-13.56	-0.9107	-0.9816	4	2.814
O=C(CCC1CCCN(C(=O)CCN2CCCCO2)C1)N1CCCC1 (stereo not shown)	-2.613	-1.057	20.89	5.952	-2.088
Cc1nc(CN2CCc3ncnc(-c4ccncc4)c3CC2)cs1.O=C(O)C(F)(F)F.O=C(O)C(F)(F)F	-	-6.972	3.502	-	-
[H][C@@]12CCCO[C@]1([H])[C@H](NC(=O)c1cscn1)CN2c1ncccn1	-	-15.24	28.13	-	-
COCCN1C(=O)[C@H]2CC[C@@H]1CN(c1nccc(C)n1)C2	-3.671	-	-	4.255	11.93
CN(C)C(=O)c1cccc(C2CCN(c3ncccn3)CC2)n1	-20.28	-	3.318	-20	5.226
CCCc1nc(CNCC2CCCN2c2cccnn2)no1 (stereo not shown)	-74.15	6.706	-2.735	23.03	6.005
O=C(O)C(F)(F)F.[H][C@@]12CN(Cc3ccncc3)CC[C@]1([H])CN(c1ccc(C)nn1)C2	-	-17.25	8.617	-	-
CC(NCCCC#N)c1ccc(-c2ccncc2)cc1 (stereo not shown)	2.891	10.91	-24.44	4.04	0.6483
O=C(Nc1ccccc1)c1cccc(S(=O)(=O)NC[C@@H]2C[C@H](F)CN2)c1	-5.287	-8.475	-0.7623	3.614	1.98
OCCN(Cc1ccncc1)CC1(c2ccc(Cl)cc2)CCCC1	-8.676	-	-	3.876	7.732 and 20
O=S(=O)(Cc1ccccc1F)NCCCN1CCCCC1	-14.48	1.211	31.48	4.564	-22.77
CN(Cc1cn2c(n1)CN(C(=O)CC1CC1)CC2)Cc1ccco1.O=C(O)C(F)(F)F	-	4.936	15.94	-	-
CCc1nnc2n1CCN(C(=O)CN(C)C1CC1)C2	-27.82	30.89	8.488	4.046	0.6386
COc1c(C2CCCN2C(=O)c2cnccn2)c(C)nn1C (stereo not shown)	-47.12	-26.92	-9.867	3.79	2.872
Cc1nc(-c2ccsc2)sc1C(=O)N1CCn2c(C)nnc2C1	1.54	0.9604	16.06	5.882	9.274
C[C@@H]1CN(C(=O)CCCn2nnc(-c3ccc(F)cc3)n2)C[C@]1(C)O	-2.326	-0.3425	-18.09	3.947	-
Cc1nc(C)n(CC2CN(CCc3cccs3)CCO2)n1 (stereo not shown)	-15.64	13.33	-10.42	3.093	0
Cc1cc(C(=O)N2CCCC2c2noc(C)n2)[nH]n1 (stereo not shown)	-14.55	-11.7	-9.431	-2.305	6.591
CS(=O)(=O)N1CCN(CC2CC2)c2ncccc2C1	-10.13	-23.35	20.47	4.908	-
Cc1ccc(N2CCC(C(O)Cc3ccccc3)CC2)nn1 (stereo not shown)	-5.707	-6.21	17.05	2.128	-0.4016
[H][C@@]12COC[C@]1(COc1cccnc1)CN(C(=O)c1ncccn1)C2	-	-11.35	15.32	-	-
COc1ccc(CSc2nnc(N)n2C2CC2)cc1F	4.348	3.83	7.301	5.603	2.155
Cc1cc(NC(=O)C(C)NCCn2cccn2)no1 (stereo not shown)	-15.38	11.84	5.311	3.704	2.822
CN1CC2(CCN(Cc3cccnc3)CC2)c2cc(F)ccc21	5.974	-12.85	19.82	11.49	-8.811
Cc1ccc(CN2C[C@@H]3COC[C@H](NS(C)(=O)=O)[C@@H]3C2)o1	8.901	-	-	8.108	-0.1269
CN(C)c1ccnc(C2CCCN2)n1.Cl (stereo not shown)	-	-25.82	21.69	-	-
CN1CCCN(Cc2nc(Cc3ccccc3)n[nH]2)CC1	-1.155	-2.338	-1.577	12.65	8.902
COc1ccc(CC(=O)Nc2c(C)nc(N3CCOCC3)nc2C)cc1	-2.716	10.3	19.12 and 15.34	-4.124	7.822
Cc1ccc(CN2C[C@@H]3CCCO[C@@H]3[C@H](N(C)Cc3ccco3)C2)o1	3.215	-	-	-7.438	7.563
CCc1ccc(OCC(O)CN2CCC(O)CC2)cc1 (stereo not shown)	2.093	0.5316	4.968	1.132	4.359
Cc1ccc(CC(=O)NCC(Cc2ccc(F)cc2)C(N)=O)cn1 (stereo not shown)	-5.544	12.91	53.64	11.56	-2.046
O=C(O)C(F)(F)F.O=C(O)C(F)(F)F.[H][C@@]12CCN(Cc3ccsc3)C[C@@]1([H])O[C@@H](C(=O)Nc1cccnc1C)C2	-	13.46	30.48	-	-
Cc1nc(C2CCCN2C(=O)CCCOc2ccccc2C)no1 (stereo not shown)	-1.765	22.41	18.28	-0.578	-0.4132
Cc1ccc2nc(C)c(C)c(C(=O)N[C@H]3COC[C@@H]3N3CCCC3)c2c1	-13.09	4.469	-0.5854	8.38	5.242
N#Cc1c(Cl)nsc1NCc1ccc(N2CCC(CO)CC2)cc1	-5.153	-32.45	13.7	0.5405	9.091
CC(=O)NCC(=O)N1Cc2nccn2CC(COc2cccnc2)C1.O=C(O)C(F)(F)F (stereo not shown)	-	14.36	11.08	-	-
Cc1cnn(CC2CN(CC(=O)N(C)c3nccs3)CCO2)c1 (stereo not shown)	5.841	2.171	8.117	-1.887	7.171
FC(F)(F)COCCN1CCCC(c2noc(C3CC3)n2)C1 (stereo not shown)	6.131	-3.634	9.159	1.245	-3.571
CN(Cc1cnn(C)c1)C(=O)c1ccc(=O)n(C)n1	-5.359	3.67	8.173	0	5.533
Cc1ccsc1CN(Cc1ccccn1)CC(O)CO (stereo not shown)	-41.59	26.82	9.219	-1.339	-0.5102